Values from PubChem BioAssay AID743454 (Peter MacCallum Cancer Centre, 2014)
The whole screen tested about 18,000 reagents; below is an unselected part. In the full data, 450 (2.5%) are marked active. 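Single biological run; no consistent viability z cut-off exists, so the class columns, not z-scores, define the calls.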

- Purpose: 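Knock-downs lowering viability or raising caspase 3/7 activity in vorinostat-treated resistant cells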 (primary screen)
- Cell system: human HCT116-VR colon cancer cells, selected for vorinostat resistance
- Reagent: siRNA pool against human genes, 40 nM siRNA pool
- Time to read-out: vorinostat for 24 h, read-out about 72 h after transfection
- Conditions: vorinostat at 2.5 µM final
- Measured: 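Two measures, CellTiter-Fluor viability and luminescent caspase 3/7 activity, each as fold change against same-plate mock wells, mean of duplicates, then screen-wide robust z-score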
- Scale: viability robust z-score: higher = more viable cells than screen typical; caspase robust z-score: higher = more caspase 3/7 activity than screen typical
- Call rule: 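Hits are knock-downs in viability class RV1/RV2 or caspase class CA1/CA2, excluding ones that killed cells in the no-drug cell-count arm; hits then retested with single siRNAs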

no.	gene	viability hit class	caspase hit class	viability robust z-score	caspase robust z-score	Call
1	FRRS1 (ferric chelate reductase 1)	no change	no change	0.08	0.3	inactive
2	NBL1 (NBL1, DAN family BMP antagonist)	no change	no change	0.76	0.26	inactive
3	CFL2 (cofilin 2)	no change	no change	-0.34	0.18	inactive
4	GALNT6 (polypeptide N-acetylgalactosaminyltransferase 6)	no change	no change	-0.49	0.78	inactive
5	CRB3 (crumbs cell polarity complex component 3)	no change	no change	-3.48	0.24	inactive
6	GDF9 (growth differentiation factor 9)	no change	no change	-0.19	-0.97	inactive
7	SLC10A3	no change	CA1 (caspase activation)	-1.66	7.27	active
8	KIAA0825	no change	no change	1.28	-0.24	inactive
9	FAM8A1 (family with sequence similarity 8 member A1)	no change	no change	0.53	-0.66	inactive
10	WNT7A (Wnt family member 7A)	no change	no change	0.03	-0.64	inactive
11	STK17B (serine/threonine kinase 17b)	no change	no change	-1.14	0.25	inactive
12	LGR4 (leucine rich repeat containing G protein-coupled receptor 4)	no change	no change	-0.86	-0.2	inactive
13	PRPH2 (peripherin 2)	no change	no change	0.02	-0.84	inactive
14	HERC5 (HECT and RLD domain containing E3 ubiquitin protein ligase 5)	no change	no change	-1.34	1.33	inactive
15	MASP1 (MBL associated serine protease 1)	no change	no change	0.42	-0.29	inactive
16	ZNF208 (zinc finger protein 208)	no change	no change	1.06	-0.02	inactive
17	KLK6 (kallikrein related peptidase 6)	no change	no change	-1.02	3.76	inactive
18	SLC25A38	no change	no change	1.2	-0.62	inactive
19	ANKRD17 (ankyrin repeat domain 17)	no change	no change	-0.26	-0.04	inactive
20	RANGRF (RAN guanine nucleotide release factor)	no change	no change	2.11	1.39	inactive
21	CD109 (CD109 molecule)	no change	no change	-1.07	0.12	inactive
22	CCNB3 (cyclin B3)	no change	no change	1.32	-0.68	inactive
23	TMEM163 (transmembrane protein 163)	no change	no change	-0.1	0.3	inactive
24	BRD8 (bromodomain containing 8)	no change	no change	-0.57	0.68	inactive
25	BUB3 (BUB3 mitotic checkpoint protein)	no change	no change	-0.05	1.42	inactive
26	IFNW1 (interferon omega 1)	RV2 (reduced viability)	CA2 (caspase activation)	-3.78	5.69	active
27	IL3 (interleukin 3)	no change	no change	-0.36	-0.15	inactive
28	PTPRD (protein tyrosine phosphatase receptor type D)	no change	no change	0.11	0.24	inactive
29	NSUN7 (NOP2/Sun RNA methyltransferase family member 7)	no change	no change	-0.02	-0.68	inactive
30	SPDYE3 (speedy/RINGO cell cycle regulator family member E3)	no change	no change	0.11	-0.9	inactive
31	STK39 (serine/threonine kinase 39)	no change	no change	-0.14	0.9	inactive
32	SLC6A5	no change	no change	-0.47	-0.68	inactive
33	CAVIN4 (caveolae associated protein 4)	no change	no change	0.42	0.2	inactive
34	PRM3 (protamine 3)	no change	no change	-0.35	-0.86	inactive
35	POLN (DNA polymerase nu)	no change	no change	0.12	-0.92	inactive
36	ZRSR2	no change	no change	0.36	-0.6	inactive
37	IST1 (IST1 factor associated with ESCRT-III)	no change	no change	0.52	-0.9	inactive
38	DCBLD2 (discoidin, CUB and LCCL domain containing 2)	no change	no change	0.09	-0.16	inactive
39	MAP4K4 (mitogen-activated protein kinase kinase kinase kinase 4)	no change	no change	0.62	-0.18	inactive

Individual results from the list.
For “caspase robust z-score”, BRD8 (bromodomain containing 8) reads 0.68
Under “Call”, MAP4K4 (mitogen-activated protein kinase kinase kinase kinase 4) is entered as inactive
Under “caspase hit class”, PRPH2 (peripherin 2) has no change
